Laboratory results taken from PMC13189624, “MORC2 mediates transcriptional regulation through liquid-liquid phase separation” (eLife, 2026).
No constants are given. Whether binding was seen depends on the method and setting. Some entries that bind do so weakly or less than the wild type.

T1: MORC2 IDR-binding domain (IBD, residues 1004-1032) (human) (UniProt Q9Y6X9)
T1 sequence: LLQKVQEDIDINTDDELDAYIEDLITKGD

T2: MORC2 CC3 domain (residues 901-1003) (human) (UniProt Q9Y6X9)
T2 sequence: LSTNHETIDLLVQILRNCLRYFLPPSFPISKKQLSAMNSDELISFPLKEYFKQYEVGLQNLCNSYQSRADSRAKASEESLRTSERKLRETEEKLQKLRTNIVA

B1: MORC2 IDR (residues 593-735) (domain or fragment, UniProt Q9Y6X9 593-735)
chain: LPLEVTTRPSTEEPVRRPQRPRSPPLPAVIRNAPSRPPSLPTPRPASQPRKAPVISSTPKLPALAAREEASTSRLLQPPEAPRKPANTLVKTASRPAPLVQQLSPSLLPNSKSPREVPSPKVIKTPVVKKTESPIKLSPATPS
B2: MORC2 IDRa (residues 593-643) (domain or fragment, UniProt Q9Y6X9 593-643)
chain: LPLEVTTRPSTEEPVRRPQRPRSPPLPAVIRNAPSRPPSLPTPRPASQPRK
B3: MORC2 1-900 (full-length MORC2 lacking CC3-IBD) (domain or fragment, UniProt Q9Y6X9 1-900)
chain: MAFTNYSSLNRAQLTFEYLHTNSTTHEFLFGALAELVDNARDADATRIDIYAERREDLRGGFMLCFLDDGAGMDPSDAASVIQFGKSAKRTPESTQIGQYGNGLKSGSMRIGKDFILFTKKEDTMTCLFLSRTFHEEEGIDEVIVPLPTWNARTREPVTDNVEKFAIETELIYKYSPFRTEEEVMTQFMKIPGDSGTLVIIFNLKLMDNGEPELDIISNPRDIQMAETSPEGTKPERRSFRAYAAVLYIDPRMRIFIHGHKVQTKRLSCCLYKPRMYKYTSSRFKTRAEQEVKKAEHVARIAEEKAREAESKARTLEVRLGGDLTRDSRVMLRQVQNRAITLRREADVKKRIKEAKQRALKEPKELNFVFGVNIEHRDLDGMFIYNCSRLIKMYEKVGPQLEGGMACGGVVGVVDVPYLVLEPTHNKQDFADAKEYRHLLRAMGEHLAQYWKDIAIAQRGIIKFWDEFGYLSANWNQPPSSELRYKRRRAMEIPTTIQCDLCLKWRTLPFQLSSVEKDYPDTWVCSMNPDPEQDRCEASEQKQKVPLGTFRKDMKTQEEKQKQLTEKIRQQQEKLEALQKTTPIRSQADLKKLPLEVTTRPSTEEPVRRPQRPRSPPLPAVIRNAPSRPPSLPTPRPASQPRKAPVISSTPKLPALAAREEASTSRLLQPPEAPRKPANTLVKTASRPAPLVQQLSPSLLPNSKSPREVPSPKVIKTPVVKKTESPIKLSPATPSRKRSVAVSDEEEVEEEAERRKERCKRGRFVVKEEKKDSNELSDSAGEEDSADLKRAQKDKGLHVEVRVNREWYTGRVTAVEVGKHVVRWKVKFDYVPTDTTPRDRWVEKGSEDVRLMKPPSPEHQSLDTQQEGGEEEVGPVAQQAIAVAEPSTSECLRIEPDTTA

How the values were obtained:
[1] = molecular target: T1, MORC2 IDR-binding domain (IBD, residues 1004-1032) (human); test: NMR titration; 15N-HSQC; IDR or IDR subregion titrated into 15N-labelled IBD or CC3; 50 mM Tris-HCl pH 8.0, 100 mM NaCl, 7% D2O; 298 K; protein 0.5 to 1.0 mM; both purified
[2] = molecular target: T2, MORC2 CC3 domain (residues 901-1003) (human); test: as above
[3] = molecular target: MORC2 1-900 (full-length MORC2 lacking CC3-IBD) (human) (UniProt Q9Y6X9); test: SEC-MALS; size-exclusion chromatography with static light scattering (miniDawn); fragments at 70 μM; Superdex 200 increase or Superose 6 increase; 50 mM Tris-HCl pH 8.0, 150 mM NaCl, 1 mM EDTA, 1 mM DTT; both purified

Row | binding [1] | binding [2] | binding [3] | Binder
1 | binds weakly | no binding |  | B1
2 | binds weakly |  |  | B2
3 |  |  | no binding (tested: 70 μM) | B3
